Binding data for 1 substance are collected here from paper PMC11707698, “Structure of an ex vivoDrosophila TOM complex determined by single-particle cryoEM” (IUCrJ, 2025).

No constants are given. Whether binding was seen depends on the method and setting. Binding can be weak; no strength is given. Where a sequence is shown, tags or fusion partners need not be part of it.

The target of this assay is T1, Drosophila Tom40 subunit fused to a C-terminal FLAG-HA epitope tag (D. melanogaster) (UniProt Q9U4L6).
T1 sequence: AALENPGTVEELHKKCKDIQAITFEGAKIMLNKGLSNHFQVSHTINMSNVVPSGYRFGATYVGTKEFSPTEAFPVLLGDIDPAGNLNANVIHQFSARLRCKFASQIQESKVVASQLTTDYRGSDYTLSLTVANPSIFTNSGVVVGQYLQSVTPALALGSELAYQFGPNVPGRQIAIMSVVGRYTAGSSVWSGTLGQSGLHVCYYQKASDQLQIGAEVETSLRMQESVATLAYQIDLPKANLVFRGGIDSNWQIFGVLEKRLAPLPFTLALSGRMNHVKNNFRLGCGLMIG
Kind of assay: cryo-EM structure; single-particle cryoEM of the TOM core complex assembled in the fly retina, FLAG-purified as a whole and reconstituted into non-ionic amphipol; graphene-coated grids; C2 symmetry; 3.3 Å.

As for “Tom7 (endogenous Drosophila TOM subunit)”, the binding entry is given as “binds”.
